Test results: patent US20170088620A1
Results are given in words; binding and its absence hold for the method and conditions named. In cells and extracts the contact can be indirect. Some results given as binding are weak or reduced against the parent protein; the word gives no strength. Sequences can lack the tags named with a protein.

Target: T1, huASGR-1 (64-291) ECD with 6xHis tag (human) (UniProt P07306)
T1 sequence: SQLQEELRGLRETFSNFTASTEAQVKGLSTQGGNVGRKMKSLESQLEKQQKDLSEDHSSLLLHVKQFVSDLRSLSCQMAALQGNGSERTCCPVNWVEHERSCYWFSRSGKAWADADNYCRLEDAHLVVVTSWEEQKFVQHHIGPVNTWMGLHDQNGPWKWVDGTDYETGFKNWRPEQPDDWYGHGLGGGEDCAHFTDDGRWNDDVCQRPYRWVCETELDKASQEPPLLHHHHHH
Test: co-purification of the untagged ASGR-2 with His-tagged ASGR-1 on Ni-Excel resin and size exclusion chromatography

binding: binds
B1: huASGR-2 (61-287) ECD without 6xHis tag (receptor, human, UniProt P07307-3 61-287, looked up)
chain: QSAQLQAELRSLKEAFSNFSSSTLTEVQAISTHGGSVGDKITSLGAKLEKQQQDLKADHDALLFHLKHFPVDLRFVACQMELLHSNGSQRTCCPVNWVEHQGSCYWFSHSGKAWAEAEKYCQLENAHLVVINSWEEQKFIVQHTNPFNTWIGLTDSDGSWKWVDGTDYRHNYKNWAVTQPDNWHGHELGGSEDCVEVQPDGRWNDDFCLQVYRWVCEKRRNATGEVA
